PubChem BioAssay AID1259308, NCATS – 2017
The whole screen tested about 59,000 reagents; below is a random part of them. In the full data, about 1,510 (2.6%) were called active. 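Calls use total luciferase alone and ignore viability, so some active siRNAs may act by altering cell number.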 The numbers tell different reagents against one gene apart. Not all columns of the deposit are shown. Reagent sequences are not shown.

Assay: 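Candidate targets for better recombinant protein yield in mammalian cells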 (primary screen)
Cell system: human HEK293 embryonic kidney cells stably expressing firefly luciferase (HEK-CMV-Luc2-Hygro)
Reagent: single siRNA against human genes, 0.8 pmol siRNA per well
Duration: 72 h
Measured: 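Reporter luminescence and viable-cell signal on separate replicate plates, given as percent of non-targeting control and median/MAD z-scores, plus per-cell luciferase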
Direction: total luciferase, z-score and total luciferase, % of control: higher = more reporter protein produced
Hit rule: 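Active when the median/MAD z-score for overall luciferase is greater than 3; a gene was taken forward for validation with new siRNAs if at least two of its three siRNAs passed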
Calls: active = raised luciferase; inactive = no rise

With knock-down of LOC645485 #1 the results were total luciferase, z-score -1.48; total luciferase, % of control 52.5; inactive. For LOC645485 #2, the values are total luciferase, z-score -0.0905; total luciferase, % of control 80.1; inactive. Against LOC645485 #3 the deposit lists total luciferase, z-score 0.984; total luciferase, % of control 101; inactive. CHMP1A #1 showed total luciferase, z-score 0.274; total luciferase, % of control 87.3; inactive. Against CHMP1A #2, the entry reads total luciferase, z-score -1.3; total luciferase, % of control 56; inactive. After knock-down of CHMP1A #3, the screen gave total luciferase, z-score 1.14; total luciferase, % of control 105; inactive.

With knock-down of KRT9 #1, the record shows total luciferase, z-score 1.96; total luciferase, % of control 121; inactive. KRT9 #2 scored total luciferase, z-score -0.962; total luciferase, % of control 62.8; inactive. For KRT9 #3, the values are total luciferase, z-score -0.835; total luciferase, % of control 65.3; inactive. Knock-down of KCNS2 #1 came out at: total luciferase, z-score 0.748; total luciferase, % of control 96.8; inactive. KCNS2 #2 gave total luciferase, z-score -0.766; total luciferase, % of control 66.7; inactive. Silencing of KCNS2 #3 gave: total luciferase, z-score 2.07; total luciferase, % of control 123; inactive.

GPR174 #1 showed total luciferase, z-score -0.485; total luciferase, % of control 72.2; inactive. For GPR174 #2, the values are total luciferase, z-score -0.531; total luciferase, % of control 71.3; inactive. Knock-down of GPR174 #3 resulted in: total luciferase, z-score 0.0604; total luciferase, % of control 83.1; inactive. Against SOWAHA #1, the entry reads total luciferase, z-score -0.623; total luciferase, % of control 69.5; inactive. Silencing of SOWAHA #2 gave: total luciferase, z-score 0.0417; total luciferase, % of control 82.7; inactive. After knock-down of SOWAHA #3, the record shows total luciferase, z-score -0.266; total luciferase, % of control 76.6; inactive.

Against CIMAP1D #1, the values are total luciferase, z-score 0.334; total luciferase, % of control 88.5; inactive. CIMAP1D #2 scored total luciferase, z-score -0.615; total luciferase, % of control 69.7; inactive. With knock-down of CIMAP1D #3, the record shows total luciferase, z-score 0.393; total luciferase, % of control 89.7; inactive.

Laid out differently: results already given.
| Target gene | reagent no. | total luciferase, z-score | total luciferase, % of control | Call |
| --- | --- | --- | --- | --- |
| GPR174 | 2 | -0.531 | 71.3 | inactive |
| GPR174 | 3 | 0.0604 | 83.1 | inactive |
